According to PMC12004362 (RSC Advances, 2025):

Experiments:
BT-12 spheroids = test: High-content imaging of 3D spheroid viability; type: cell-based; conditions: Homo sapiens, BT-12, 72 h, read-out: EC50, BT-12 spheroids
BT-12 cells = test: Secondary screening; type: cell-based, human; conditions: read-out: BT-12 cells IC50; 2D culture, 72 h, MTT
BT-16 spheroids = test: High-content imaging of 3D spheroid viability; type: cell-based; conditions: Homo sapiens, BT-16, 72 h, read-out: EC50, BT-16 spheroids
BT-16 cells = test: Secondary screening; type: cell-based, human; conditions: read-out: BT-16 cells IC50; 2D culture, 72 h, MTT

COc1cc2c(c(OC)c1OC)-c1ccc(OC)c(=O)cc1[C@@H](NC(C)=O)CC2 [Colchicine]
EC50 (BT-12 spheroids): 14 nM | IC50 (BT-12 cells): 16 nM | EC50 (BT-16 spheroids): 37 nM | IC50 (BT-16 cells): 56 nM
